These are yes or no findings as the source states them, for the method shown. In cells and extracts the contact can be indirect. Some results given as binding are weak or reduced against the parent protein; the word gives no strength. Tags and fused reporters may be left off the sequences shown. Blank lines part the entries; values can stand above or below the molecule they belong to.
Experiments:
[1] = biological target: T1, FBXO24 (WT) tagged with 3×FLAG (mouse) (UniProt Q9D417); test: co-IP; 3×FLAG-tagged Fbxo24 transiently expressed in HEK293T cells; IP with anti-FLAG antibody; immunoblot of endogenous IPO5 and KPNB1
T1 sequence: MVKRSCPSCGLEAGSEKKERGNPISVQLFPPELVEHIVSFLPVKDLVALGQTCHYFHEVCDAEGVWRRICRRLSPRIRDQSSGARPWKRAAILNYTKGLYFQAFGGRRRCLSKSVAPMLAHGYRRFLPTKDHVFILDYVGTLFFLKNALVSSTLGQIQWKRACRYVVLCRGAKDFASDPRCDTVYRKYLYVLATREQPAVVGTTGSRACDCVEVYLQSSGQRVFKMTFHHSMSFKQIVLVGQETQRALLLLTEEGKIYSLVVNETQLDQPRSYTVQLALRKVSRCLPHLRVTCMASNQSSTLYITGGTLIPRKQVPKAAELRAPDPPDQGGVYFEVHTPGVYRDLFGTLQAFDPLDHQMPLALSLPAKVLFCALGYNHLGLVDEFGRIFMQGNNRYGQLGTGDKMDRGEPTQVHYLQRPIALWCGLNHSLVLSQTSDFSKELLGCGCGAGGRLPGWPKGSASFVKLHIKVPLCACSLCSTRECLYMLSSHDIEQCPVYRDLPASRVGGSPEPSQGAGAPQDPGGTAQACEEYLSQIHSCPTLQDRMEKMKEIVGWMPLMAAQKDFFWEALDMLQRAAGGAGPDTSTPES

Sequences of proteins named here, by UniProt entry; tags and fusion partners are left off.
UniProt Q9WTX5: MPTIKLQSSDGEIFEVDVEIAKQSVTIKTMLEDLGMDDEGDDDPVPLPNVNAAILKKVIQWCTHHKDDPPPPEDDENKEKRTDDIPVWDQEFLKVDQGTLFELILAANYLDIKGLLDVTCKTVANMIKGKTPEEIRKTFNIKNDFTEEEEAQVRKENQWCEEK
UniProt Q14974: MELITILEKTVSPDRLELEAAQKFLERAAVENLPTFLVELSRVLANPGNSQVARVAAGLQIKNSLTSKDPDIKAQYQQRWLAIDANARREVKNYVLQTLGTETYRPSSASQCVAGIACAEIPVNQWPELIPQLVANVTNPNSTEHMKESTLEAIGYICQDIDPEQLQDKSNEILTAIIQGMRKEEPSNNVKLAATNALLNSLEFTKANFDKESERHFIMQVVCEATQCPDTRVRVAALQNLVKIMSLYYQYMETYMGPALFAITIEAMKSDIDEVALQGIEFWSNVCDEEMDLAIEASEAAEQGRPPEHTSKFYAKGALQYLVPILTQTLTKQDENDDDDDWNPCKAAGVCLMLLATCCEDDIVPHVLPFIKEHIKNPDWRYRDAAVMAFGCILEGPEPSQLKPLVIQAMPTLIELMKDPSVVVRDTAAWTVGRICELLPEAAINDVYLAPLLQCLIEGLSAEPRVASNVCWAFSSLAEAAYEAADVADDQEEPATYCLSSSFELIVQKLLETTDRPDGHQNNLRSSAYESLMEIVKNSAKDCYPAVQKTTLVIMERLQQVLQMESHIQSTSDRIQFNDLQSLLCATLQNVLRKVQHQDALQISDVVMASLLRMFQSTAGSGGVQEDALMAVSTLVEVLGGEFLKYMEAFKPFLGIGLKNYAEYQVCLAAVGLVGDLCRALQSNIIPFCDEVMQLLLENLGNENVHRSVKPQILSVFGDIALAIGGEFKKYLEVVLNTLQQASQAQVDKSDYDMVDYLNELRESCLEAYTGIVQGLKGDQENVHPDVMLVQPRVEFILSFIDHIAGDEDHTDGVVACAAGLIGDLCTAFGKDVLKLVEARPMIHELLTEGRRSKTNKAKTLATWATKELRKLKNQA

[2] = biological target: T2, 3×FLAG-tagged FBXO24 expressed in transgenic mouse testes (mouse) (UniProt Q9D417); test: co-IP; IP of FBXO24-FLAG with anti-FLAG antibody from Fbxo24-FLAG Tg mouse testes; immunoblot with mouse anti-IPO5 monoclonal antibody
T2 sequence: T1 sequence

SKP1-1D4 (mouse) = SKP1-1D4 (mouse) (UniProt Q9WTX5); test: co-IP; Fbxo24 (WT or ΔF)-FLAG co-expressed with Skp1-1D4 in HEK293T cells; IP with anti-1D4 or anti-FLAG antibody on Protein G magnetic beads, 1 h at 4°C; 1% Triton X-100 lysis buffer, 50 mM Tris-HCl pH 7.4, 150 mM NaCl; immunoblot

binding [1]: binds
B1: IPO5 (importin 5), endogenous in HEK293T cells (protein, UniProt O00410 1-1097)
chain: MAAAAAEQQQFYLLLGNLLSPDNVVRKQAEETYENIPGQSKITFLLQAIRNTTAAEEARQMAAVLLRRLLSSAFDEVYPALPSDVQTAIKSELLMIIQMETQSSMRKKVCDIAAELARNLIDEDGNNQWPEGLKFLFDSVSSQNVGLREAALHIFWNFPGIFGNQQQHYLDVIKRMLVQCMQDQEHPSIRTLSARATAAFILANEHNVALFKHFADLLPGFLQAVNDSCYQNDDSVLKSLVEIADTVPKYLRPHLEATLQLSLKLCGDTSLNNMQRQLALEVIVTLSETAAAMLRKHTNIVAQTIPQMLAMMVDLEEDEDWANADELEDDDFDSNAVAGESALDRMACGLGGKLVLPMIKEHIMQMLQNPDWKYRHAGLMALSAIGEGCHQQMEGILNEIVNFVLLFLQDPHPRVRYAACNAVGQMATDFAPGFQKKFHEKVIAALLQTMEDQGNQRVQAHAAAALINFTEDCPKSLLIPYLDNLVKHLHSIMVLKLQELIQKGTKLVLEQVVTSIASVADTAEEKFVPYYDLFMPSLKHIVENAVQKELRLLRGKTIECISLIGLAVGKEKFMQDASDVMQLLLKTQTDFNDMEDDDPQISYMISAWARMCKILGKEFQQYLPVVMGPLMKTASIKPEVALLDTQDMENMSDDDGWEFVNLGDQQSFGIKTAGLEEKSTACQMLVCYAKELKEGFVEYTEQVVKLMVPLLKFYFHDGVRVAAAESMPLLLECARVRGPEYLTQMWHFMCDALIKAIGTEPDSDVLSEIMHSFAKCIEVMGDGCLNNEHFEELGGILKAKLEEHFKNQELRQVKRQDEDYDEQVEESLQDEDDNDVYILTKVSDILHSIFSSYKEKVLPWFEQLLPLIVNLICPHRPWPDRQWGLCIFDDVIEHCSPASFKYAEYFLRPMLQYVCDNSPEVRQAAAYGLGVMAQYGGDNYRPFCTEALPLLVRVIQSADSKTKENVNATENCISAVGKIMKFKPDCVNVEEVLPHWLSWLPLHEDKEEAVQTFNYLCDLIESNHPIVLGPNNTNLPKIFSIIAEGEMHEAIKHEDPCAKRLANVVRQVQTSGGLWTECIAQLSPEQQAAIQELLNSA

binding (SKP1-1D4 (mouse)): binds
B3: FBXO24 (WT) tagged with 3×FLAG (protein, UniProt Q9D417 1-589)
chain: T1 sequence

The remaining lines, values behind:

Molecule: KPNB1 (karyopherin subunit beta 1), endogenous in HEK293T cells (from UniProt Q14974 1-876)
binding [1]: no binding

B2: IPO5 (importin 5), endogenous in mouse testis (protein, UniProt Q8BKC5 1-1097)
chain: MAAAAAEQQQFYLLLGNLLSPDNVVRKQAEETYENIPGRSKITFLLQAIRNTTAAEEARQMAAVLLRRLLSSAFDEVYPALPSDVQTAIKSELLMIIQMETQSSMRKKICDIAAELARNLIDEDGNNQWPEGLKFLFDSVSSQNMGLREAALHIFWNFPGIFGNQQQHYLDVIKRMLVQCMQDQEHPSIRTLSARATAAFILANEHNVALFKHFADLLPGFLQAVNDSCYQNDDSVLKSLVEIADTVPKYLRPHLEATLQLSLKLCGDTNLNNMQRQLALEVIVTLSETAAAMLRKHTSLIAQTIPQMLAMMVDLEEDEDWANADELEDDDFDSNAVAGESALDRMACGLGGKLVLPMIKEHIMQMLQNPDWKYRHAGLMALSAIGEGCHQQMEGILNEIVNFVLLFLQDPHPRVRYAACNAVGQMATDFAPGFQKKFHEKVIAALLQTMEDQGNQRVQAHAAAALINFTEDCPKSLLIPYLDNLVKHLHSIMVLKLQELIQKGTKLVLEQVVTSIASVADTAEEKFVPYYDLFMPSLKHIVENAVQKELRLLRGKTIECISLIGLAVGKEKFMQDASDVMQLLLKTQTDFNDMEDDDPQISYMISAWARMCKILGKEFQQYLPVVMGPLMKTASIKPEVALLDTQDMENMSDDDGWEFVNLGDQQSFGIKTAGLEEKSTACQMLVCYAKELKEGFVEYTEQVVKLMVPLLKFYFHDGVRVAAAESMPLLLECARVRGPEYLTQMWHFMCDALIKAIGTEPDSDVLSEIMHSFAKCIEVMGDGCLNNEHFEELGGILKAKLEEHFKNQELRQVKRQDEDYDEQVEESLQDEDDNDVYILTKVSDILHSIFSSYKEKVLPWFEQLLPLIVNLICPQRPWPDRQWGLCIFDDIVEHCSPASFKYAEYFISPMLQYVCDNSPEVRQAAAYGLGVMAQFGGDNYRPFCTDALPLLVRVIQAPEAKTKENVNATENCISAVGKIMKFKPDCVNVEEVLPHWLSWLPLHEDKEEAVQTFSYLCDLIESNHPIVLGPNNTNLPKIFSIIAEGEMHEAIKHEDPCAKRLANVVRQVQTSGGLWTECIAQLSPEQQAAIQELLNSA
binding [2]: binds
